The assay addresses T1, ZIPT-7.1 lacking the last 21 C-terminal amino acids (split-ubiquitin bait) (C. elegans) (UniProt Q9XUC4).
T1 sequence: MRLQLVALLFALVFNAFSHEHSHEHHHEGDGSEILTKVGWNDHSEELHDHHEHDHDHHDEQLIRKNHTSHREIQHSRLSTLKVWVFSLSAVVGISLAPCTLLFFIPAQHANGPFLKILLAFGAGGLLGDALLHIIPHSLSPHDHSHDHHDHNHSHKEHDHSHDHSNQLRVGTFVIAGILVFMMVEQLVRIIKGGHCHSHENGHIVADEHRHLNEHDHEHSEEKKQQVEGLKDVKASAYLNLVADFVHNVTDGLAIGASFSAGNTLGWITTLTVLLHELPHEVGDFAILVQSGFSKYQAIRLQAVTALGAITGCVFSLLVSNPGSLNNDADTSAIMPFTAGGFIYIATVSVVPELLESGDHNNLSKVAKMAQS
The assay is described as follows: two-hybrid; split-ubiquitin yeast two-hybrid (DUALmembrane kit, Dualsystems Biotech) in yeast NMY51; ZIPT-7.1 on the bait plasmid pBT3-STE, other proteins on prey plasmids; growth on synthetic medium lacking Trp, Leu, His and Ade at three plating dilutions.

No constants are given. Whether binding was seen depends on the method and setting.

With SPE-19 (C. elegans), the binding entry is “no binding”.
Under SPE-43 (C. elegans) stands “no binding”.
